From PMC10536063 (ACS Omega, 2023)

Assays:
[1] = test system: MCF-7 (breast cancer cells); test: MTT cytotoxicity bioassay against MCF-7; format: cell-based, human; conditions: read-out: IC50 ± SD, MCF-7, 48 h, mean ± SD, n = 3
[2] = test system: MCF-10A (normal breast) cells; test: MTT cytotoxicity bioassay against normal MCF-10A cells; format: cell-based; conditions: Homo sapiens, 48 h, read-out: IC50 ± SD, MCF-10A

Compound: CC[C@H](CO)Nc1nc(NCc2ccccc2)c2ncn(C(C)C)c2n1 [Roscovitine, reference compound]
- IC50 [1]: 1.91 ± 0.17 µM
- IC50 [2]: ≥ 50 µM
